The supplement of paper PMC10849652
The other results are listed elsewhere or left out.

By UniProt entry, the sequences of proteins in these tests, tags left out. Where a name states a change or a piece, a line headed by the entry shows the natural chain unless it says otherwise.
UniProt Q13296: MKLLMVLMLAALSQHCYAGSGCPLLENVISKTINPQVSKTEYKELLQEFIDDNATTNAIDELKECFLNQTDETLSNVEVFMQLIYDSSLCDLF
UniProt Q99470: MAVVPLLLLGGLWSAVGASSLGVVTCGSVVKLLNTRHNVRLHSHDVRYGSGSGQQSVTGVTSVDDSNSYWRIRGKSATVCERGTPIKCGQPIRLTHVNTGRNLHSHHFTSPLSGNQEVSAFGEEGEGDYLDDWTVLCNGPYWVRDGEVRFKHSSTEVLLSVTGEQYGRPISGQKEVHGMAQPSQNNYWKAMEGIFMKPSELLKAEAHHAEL
UniProt O14828: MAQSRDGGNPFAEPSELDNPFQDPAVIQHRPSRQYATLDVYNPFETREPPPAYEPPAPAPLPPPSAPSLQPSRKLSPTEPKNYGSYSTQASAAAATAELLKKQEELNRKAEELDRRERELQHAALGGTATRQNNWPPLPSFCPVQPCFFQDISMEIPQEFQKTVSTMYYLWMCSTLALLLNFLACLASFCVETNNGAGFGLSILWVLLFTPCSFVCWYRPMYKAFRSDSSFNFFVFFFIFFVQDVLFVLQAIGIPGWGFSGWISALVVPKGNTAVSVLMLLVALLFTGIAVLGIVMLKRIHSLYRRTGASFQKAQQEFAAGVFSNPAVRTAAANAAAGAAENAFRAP
UniProt Q9Y2B1: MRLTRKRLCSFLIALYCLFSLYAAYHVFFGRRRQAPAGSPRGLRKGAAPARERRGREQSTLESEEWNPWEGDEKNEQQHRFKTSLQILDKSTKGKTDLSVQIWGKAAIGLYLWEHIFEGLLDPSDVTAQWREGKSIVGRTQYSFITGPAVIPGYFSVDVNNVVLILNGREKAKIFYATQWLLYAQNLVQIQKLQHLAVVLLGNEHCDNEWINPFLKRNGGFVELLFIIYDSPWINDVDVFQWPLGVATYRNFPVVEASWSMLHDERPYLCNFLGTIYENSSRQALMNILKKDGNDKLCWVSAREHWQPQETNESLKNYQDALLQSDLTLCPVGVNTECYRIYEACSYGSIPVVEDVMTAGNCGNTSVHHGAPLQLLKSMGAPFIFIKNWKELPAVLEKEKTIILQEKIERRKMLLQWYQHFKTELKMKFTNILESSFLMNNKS
UniProt Q9NPB0: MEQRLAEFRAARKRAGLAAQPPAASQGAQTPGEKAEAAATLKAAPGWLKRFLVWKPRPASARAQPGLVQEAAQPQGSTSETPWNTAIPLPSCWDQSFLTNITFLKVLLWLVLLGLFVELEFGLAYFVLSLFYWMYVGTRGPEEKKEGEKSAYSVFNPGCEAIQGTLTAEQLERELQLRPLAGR
UniProt Q9Y3A4: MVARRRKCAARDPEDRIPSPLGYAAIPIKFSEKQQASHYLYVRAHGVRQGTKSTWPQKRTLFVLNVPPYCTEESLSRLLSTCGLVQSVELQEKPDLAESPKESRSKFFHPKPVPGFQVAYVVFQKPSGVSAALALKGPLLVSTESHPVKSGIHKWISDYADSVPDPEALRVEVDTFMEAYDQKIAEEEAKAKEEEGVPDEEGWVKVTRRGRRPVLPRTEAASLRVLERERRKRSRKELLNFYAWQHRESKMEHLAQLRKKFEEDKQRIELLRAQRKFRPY
UniProt A6ZKI3: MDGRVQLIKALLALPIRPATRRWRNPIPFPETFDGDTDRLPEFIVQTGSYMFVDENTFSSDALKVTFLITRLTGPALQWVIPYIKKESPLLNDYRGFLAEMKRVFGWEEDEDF
UniProt Q8IZE3: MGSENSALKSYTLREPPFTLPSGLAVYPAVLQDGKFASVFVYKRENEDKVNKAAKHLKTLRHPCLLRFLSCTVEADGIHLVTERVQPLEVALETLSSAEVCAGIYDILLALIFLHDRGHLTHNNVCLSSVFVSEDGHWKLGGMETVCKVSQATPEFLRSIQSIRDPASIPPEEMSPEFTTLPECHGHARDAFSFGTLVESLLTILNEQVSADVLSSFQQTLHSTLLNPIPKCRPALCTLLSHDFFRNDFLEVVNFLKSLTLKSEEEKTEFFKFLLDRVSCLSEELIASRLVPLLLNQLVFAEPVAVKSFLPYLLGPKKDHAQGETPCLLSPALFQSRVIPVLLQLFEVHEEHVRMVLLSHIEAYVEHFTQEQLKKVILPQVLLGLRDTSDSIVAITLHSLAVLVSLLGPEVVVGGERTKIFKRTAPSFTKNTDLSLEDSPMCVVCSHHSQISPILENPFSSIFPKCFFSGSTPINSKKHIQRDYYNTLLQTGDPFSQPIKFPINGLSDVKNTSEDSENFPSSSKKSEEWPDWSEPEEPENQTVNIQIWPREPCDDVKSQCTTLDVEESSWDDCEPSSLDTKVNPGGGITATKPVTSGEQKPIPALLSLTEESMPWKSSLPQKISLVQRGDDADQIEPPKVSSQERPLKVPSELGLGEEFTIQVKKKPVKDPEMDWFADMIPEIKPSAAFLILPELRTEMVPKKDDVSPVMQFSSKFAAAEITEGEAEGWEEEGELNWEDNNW
UniProt Q7L3V2: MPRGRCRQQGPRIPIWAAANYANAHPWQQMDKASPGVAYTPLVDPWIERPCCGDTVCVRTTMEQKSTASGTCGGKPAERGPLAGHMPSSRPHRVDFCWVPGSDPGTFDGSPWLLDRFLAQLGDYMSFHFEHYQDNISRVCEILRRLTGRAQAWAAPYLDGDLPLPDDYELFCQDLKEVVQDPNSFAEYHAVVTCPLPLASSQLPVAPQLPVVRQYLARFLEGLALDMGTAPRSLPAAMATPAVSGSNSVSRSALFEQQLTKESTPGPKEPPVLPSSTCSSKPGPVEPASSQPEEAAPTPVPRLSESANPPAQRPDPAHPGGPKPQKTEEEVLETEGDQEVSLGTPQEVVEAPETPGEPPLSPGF
UniProt P26447: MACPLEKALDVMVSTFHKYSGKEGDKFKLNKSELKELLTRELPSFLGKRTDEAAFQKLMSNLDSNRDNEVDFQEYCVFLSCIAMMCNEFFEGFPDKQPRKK
UniProt Q96BU1: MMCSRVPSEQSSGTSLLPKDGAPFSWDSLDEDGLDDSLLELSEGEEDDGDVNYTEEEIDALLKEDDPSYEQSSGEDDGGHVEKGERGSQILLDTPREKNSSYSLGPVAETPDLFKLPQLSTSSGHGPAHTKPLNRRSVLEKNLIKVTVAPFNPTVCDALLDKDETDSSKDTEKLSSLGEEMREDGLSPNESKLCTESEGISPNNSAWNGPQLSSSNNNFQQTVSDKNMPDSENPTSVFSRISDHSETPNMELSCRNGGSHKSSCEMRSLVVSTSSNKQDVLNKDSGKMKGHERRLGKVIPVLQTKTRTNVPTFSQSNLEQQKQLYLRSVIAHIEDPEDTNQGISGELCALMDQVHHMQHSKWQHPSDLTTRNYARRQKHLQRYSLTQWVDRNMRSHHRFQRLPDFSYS
UniProt P60903, whole entry, looked up: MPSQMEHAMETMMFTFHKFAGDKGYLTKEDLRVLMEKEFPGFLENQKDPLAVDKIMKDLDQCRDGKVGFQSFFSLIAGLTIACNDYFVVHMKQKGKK
UniProt Q6UWP8: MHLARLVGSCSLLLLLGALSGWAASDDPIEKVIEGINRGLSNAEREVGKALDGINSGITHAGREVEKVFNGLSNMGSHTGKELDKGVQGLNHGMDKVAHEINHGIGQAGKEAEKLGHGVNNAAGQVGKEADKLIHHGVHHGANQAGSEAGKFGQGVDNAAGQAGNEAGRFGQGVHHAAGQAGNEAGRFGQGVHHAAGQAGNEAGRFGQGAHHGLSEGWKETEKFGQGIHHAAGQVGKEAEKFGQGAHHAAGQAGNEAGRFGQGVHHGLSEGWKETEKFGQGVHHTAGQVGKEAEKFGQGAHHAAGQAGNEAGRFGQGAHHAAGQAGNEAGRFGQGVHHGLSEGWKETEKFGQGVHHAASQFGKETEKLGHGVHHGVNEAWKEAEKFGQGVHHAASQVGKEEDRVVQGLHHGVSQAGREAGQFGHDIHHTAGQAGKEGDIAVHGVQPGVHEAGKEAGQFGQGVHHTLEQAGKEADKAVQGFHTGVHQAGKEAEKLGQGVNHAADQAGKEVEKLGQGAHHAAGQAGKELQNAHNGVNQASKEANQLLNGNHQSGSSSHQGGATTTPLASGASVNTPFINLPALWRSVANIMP
UniProt Q96FQ6: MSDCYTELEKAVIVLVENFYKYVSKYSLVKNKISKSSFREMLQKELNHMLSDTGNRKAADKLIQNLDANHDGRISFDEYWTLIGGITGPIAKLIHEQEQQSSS
UniProt Q9HCY8: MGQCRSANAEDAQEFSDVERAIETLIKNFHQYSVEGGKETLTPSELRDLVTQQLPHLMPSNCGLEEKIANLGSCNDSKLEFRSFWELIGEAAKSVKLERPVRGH
UniProt P23297: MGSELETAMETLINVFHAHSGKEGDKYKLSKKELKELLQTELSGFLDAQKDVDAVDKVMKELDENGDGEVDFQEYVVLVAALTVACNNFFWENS
UniProt O75556: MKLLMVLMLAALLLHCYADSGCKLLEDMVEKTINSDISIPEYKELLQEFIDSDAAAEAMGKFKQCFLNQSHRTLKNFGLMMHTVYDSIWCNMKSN
UniProt P48443: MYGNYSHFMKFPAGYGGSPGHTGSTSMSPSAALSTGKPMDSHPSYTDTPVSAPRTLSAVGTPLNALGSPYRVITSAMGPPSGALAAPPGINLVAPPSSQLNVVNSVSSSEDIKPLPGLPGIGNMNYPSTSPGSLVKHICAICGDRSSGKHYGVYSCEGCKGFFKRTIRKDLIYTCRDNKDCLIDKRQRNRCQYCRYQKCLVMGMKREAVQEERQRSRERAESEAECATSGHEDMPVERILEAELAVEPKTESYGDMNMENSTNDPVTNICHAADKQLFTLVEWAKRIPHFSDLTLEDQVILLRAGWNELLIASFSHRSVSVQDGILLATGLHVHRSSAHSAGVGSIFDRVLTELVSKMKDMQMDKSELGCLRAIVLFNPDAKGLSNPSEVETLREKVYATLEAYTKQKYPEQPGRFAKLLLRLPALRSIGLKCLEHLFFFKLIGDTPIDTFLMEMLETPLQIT
UniProt Q9H0E3: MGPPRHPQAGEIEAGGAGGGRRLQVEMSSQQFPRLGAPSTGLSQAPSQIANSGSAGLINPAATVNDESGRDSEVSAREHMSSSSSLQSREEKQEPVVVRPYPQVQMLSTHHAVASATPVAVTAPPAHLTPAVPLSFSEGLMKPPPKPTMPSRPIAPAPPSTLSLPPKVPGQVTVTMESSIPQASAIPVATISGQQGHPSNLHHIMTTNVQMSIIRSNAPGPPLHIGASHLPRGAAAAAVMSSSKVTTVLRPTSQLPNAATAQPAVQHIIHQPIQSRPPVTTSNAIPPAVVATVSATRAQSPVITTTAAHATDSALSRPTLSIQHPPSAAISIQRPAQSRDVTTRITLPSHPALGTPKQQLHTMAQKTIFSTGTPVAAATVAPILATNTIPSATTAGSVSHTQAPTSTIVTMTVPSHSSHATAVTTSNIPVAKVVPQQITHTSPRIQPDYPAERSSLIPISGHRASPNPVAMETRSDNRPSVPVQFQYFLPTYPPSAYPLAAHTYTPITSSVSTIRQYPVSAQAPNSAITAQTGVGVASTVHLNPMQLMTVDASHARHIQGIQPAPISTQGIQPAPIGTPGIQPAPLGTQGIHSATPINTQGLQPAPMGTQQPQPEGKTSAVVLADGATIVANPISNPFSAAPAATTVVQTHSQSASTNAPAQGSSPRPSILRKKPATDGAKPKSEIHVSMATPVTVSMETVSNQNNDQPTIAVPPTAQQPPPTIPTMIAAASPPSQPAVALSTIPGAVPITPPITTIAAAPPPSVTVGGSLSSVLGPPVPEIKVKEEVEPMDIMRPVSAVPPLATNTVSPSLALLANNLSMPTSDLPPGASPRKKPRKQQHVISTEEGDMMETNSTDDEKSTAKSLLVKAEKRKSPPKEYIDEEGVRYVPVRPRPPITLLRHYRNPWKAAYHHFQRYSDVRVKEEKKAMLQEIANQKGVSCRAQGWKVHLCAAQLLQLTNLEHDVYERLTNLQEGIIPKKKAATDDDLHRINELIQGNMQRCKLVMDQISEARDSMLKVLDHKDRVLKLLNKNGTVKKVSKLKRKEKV

What follows are targets tested with COc1cc2nc(-c3cc(F)ccc3O)nc(N[C@@H]3CNC[C@H]3C(C)(C)O)c2cc1OC (assay: log2 fold change, soluble protein after heating vs DMSO (PISA); higher = thermal stabilisation; K562 cells, 10 uM, 30 min; active = over 0.2 and 3.5 SD of the protein, either way, in both replicates (recomputed)).
Outline: (§1)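 K562 cells at 2×10^6 cells/mL were exposed to 10 μM compound for 30 min, then aliquots were heated for 3 min across 48°C-58°C, pooled, and extracted in PBS containing 0.5% NP-40 at 4°C. The supernatant after 21,000xg for 90 min was taken as soluble protein and measured by TMTpro 16plex LC-MS/MS with channel sums equalised. Thermal stability is reported relative to control samples, with values from duplicates. Fold changes are given on a log2 scale.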

Row | Target | log2 fold change
1 | SCGB2A2 (UniProt Q13296) | inactive: 0.168
2 | SDF2 (UniProt Q99470) | inactive: -0.222
3 | SCAMP3 isoform 2 (UniProt O14828) | inactive: 0.003
4 | RXYLT1 (UniProt Q9Y2B1) | inactive: 0.42
5 | SAE1 (UniProt M0R286) | inactive: 0.282
6 | SAYSD1 (UniProt Q9NPB0) | inactive: -0.025
7 | RRP7A (UniProt Q9Y3A4) | inactive: 0.034
8 | RTL8C (UniProt A6ZKI3) | inactive: 0.147
9 | SCYL3 isoform 2 (UniProt Q8IZE3) | inactive: 0.039
10 | SDHB, A0A087WXX8 | inactive: 0.077
11 | RTL10 (UniProt Q7L3V2) | inactive: -0.124
12 | S100A4 (UniProt P26447) | inactive: 0.033
13 | S100PBP (UniProt Q96BU1) | inactive: -0.019
14 | S100A10 (UniProt P60903) | inactive: 0.093

What follows are targets tested with COc1cc2ncnc(Nc3ccc(F)c(Cl)c3)c2cc1OCCCN1CCOCC1 [gefitinib] in the same assay as above.
Outline: as §1

Row | Target | log2 fold change
15 | SCGB2A2 (UniProt Q13296) | inactive: 0.279
16 | SCAMP3 isoform 2 (UniProt O14828) | inactive: 0.057
17 | RXYLT1 (UniProt Q9Y2B1) | inactive: 0.144
18 | SBSN (UniProt Q6UWP8) | inactive: 0.246
19 | S100A16 (UniProt Q96FQ6) | inactive: 0.383
20 | RRP7A (UniProt Q9Y3A4) | inactive: -0.063
21 | SCYL3 isoform 2 (UniProt Q8IZE3) | inactive: 0.063
22 | SDHB, A0A087WXX8 | inactive: -0.087
23 | S100A4 (UniProt P26447) | inactive: 0.008
24 | S100A14 (UniProt Q9HCY8) | inactive: 0.289
25 | S100PBP (UniProt Q96BU1) | inactive: -0.007
26 | SAFB2 (UniProt K7EQU4) | inactive: -0.126
27 | S100A10 (UniProt P60903) | inactive: 0.305
28 | S100A1 (UniProt P23297) | inactive: 0.029
29 | SCGB2A1 (UniProt O75556) | inactive: 0.298
30 | RSL24D1 (UniProt Q9UHA3) | inactive: -0.031

These targets were tested with COc1cccc2cc(-c3nc([C@H]4CC[C@H](C(=O)O)CC4)n4ncnc(N)c34)[nH]c12 in the same assay as above.
Outline: as §1

Row | Target | log2 fold change
31 | SCGB2A2 (UniProt Q13296) | inactive: 0.111
32 | SCAMP3 isoform 2 (UniProt O14828) | inactive: 0.154
33 | SBSN (UniProt Q6UWP8) | inactive: -0.246
34 | SAE1 (UniProt M0R286) | inactive: 0.485
35 | SAYSD1 (UniProt Q9NPB0) | inactive: 0.16
36 | S100A16 (UniProt Q96FQ6) | inactive: -0.051
37 | RRP7A (UniProt Q9Y3A4) | inactive: -0.098
38 | SCYL3 isoform 2 (UniProt Q8IZE3) | inactive: 0.032
39 | SDHB, A0A087WXX8 | inactive: -0.024
40 | RTL10 (UniProt Q7L3V2) | inactive: 0.064
41 | S100A14 (UniProt Q9HCY8) | inactive: -0.026
42 | S100PBP (UniProt Q96BU1) | inactive: 0.029
43 | SCN4A (UniProt P35499) | inactive: 0.146
44 | SCGB2A1 (UniProt O75556) | inactive: -0.163
45 | RSL24D1 (UniProt Q9UHA3) | inactive: -0.183

What follows are targets tested with CS(=O)(=O)CCNCc1ccc(-c2ccc3ncnc(Nc4ccc(OCc5cccc(F)c5)c(Cl)c4)c3c2)o1 [lapatinib] in the same assay as above.
Outline: as §1

Row | Target | log2 fold change
46 | SCGB2A2 (UniProt Q13296) | inactive: 0.004
47 | SDF2 (UniProt Q99470) | inactive: 0.374
48 | SCAMP3 isoform 2 (UniProt O14828) | inactive: 0.051
49 | RXYLT1 (UniProt Q9Y2B1) | inactive: 0.316
50 | SAE1 (UniProt M0R286) | inactive: -0.358
51 | SAYSD1 (UniProt Q9NPB0) | inactive: -0.065
52 | RRP7A (UniProt Q9Y3A4) | inactive: -0.021
53 | RTL8C (UniProt A6ZKI3) | inactive: -0.049
54 | SCYL3 isoform 2 (UniProt Q8IZE3) | inactive: -0.084
55 | SDHB, A0A087WXX8 | inactive: -0.103
56 | RTL10 (UniProt Q7L3V2) | inactive: 0.114
57 | S100A4 (UniProt P26447) | inactive: 0.098
58 | S100PBP (UniProt Q96BU1) | inactive: -0.069
59 | S100A10 (UniProt P60903) | inactive: 0.01

The targets below were run with CS(=O)(=O)N1CCN(Cc2cc3nc(-c4cccc5[nH]ncc45)nc(N4CCOCC4)c3s2)CC1 [pictilisib] in the same assay as above.
Outline: as §1

Row | Target | log2 fold change
60 | SCGB2A2 (UniProt Q13296) | inactive: -0.249
61 | SBF2 (UniProt Q86WG5) | inactive: 0.04
62 | SDF2 (UniProt Q99470) | inactive: 0.025
63 | SATB2 (UniProt Q9UPW6) | inactive: 0.095
64 | RTL8C (UniProt A6ZKI3) | inactive: 0.084
65 | SCYL3 isoform 2 (UniProt Q8IZE3) | inactive: 0.018
66 | SDHB, A0A087WXX8 | inactive: 0.144
67 | RTL10 (UniProt Q7L3V2) | inactive: -0.159
68 | RXRG (UniProt P48443) | inactive: -0.06
69 | S100PBP (UniProt Q96BU1) | inactive: -0.145
70 | SAP130 isoform 3 (UniProt Q9H0E3) | inactive: -0.155
71 | S100A10 (UniProt P60903) | inactive: -0.056
